Patent publication US8377981B2, “CBI derivatives subject to reductive activation” (The Scripps Research Institute, priority 2007, dated 2013)
Some of these results come from one statement about several compounds together.

Tested on: L1210 cell line (mouse leukemia)
Assay: Cytotoxic activity, L1210 cell line
Format: cell-based
Conditions: natural enantiomers; all three cell lines
Procedure: The O-amino phenol derivatives bearing the N—O prodrug linkages and the various N-acyl substituents were assayed for cytotoxic activity alongside the parent drugs CBI-TMI (2) (Boger, D. L.; Yun, W. J. Am. Chem. Soc. 1994, 116, 7996) and mitomycin C (Boger, D. L.; et al. Bioorg. Med. Chem. Lett. 1991, 1, 115; Boger, D. L.; et al. Bioorg. Med. Chem. 1995, 3, 1429) as well as the two control standards 9 and 10 incapable of free phenol release. Three cell lines were examined including a standard L1210 cell line (mouse leukemia) as well as the mitomycin-sensitive (H460, expresses high levels of DT-Diaphorase) and resistant (H596, lacks DT-Diaphorase) non small cell lung cancer (NSCLC) cell lines, with results shown in the Table below.

Row | Compound | fold less active than the free drug 2 (seco-CBI-TMI)
1 | COc1cc2cc(C(=O)N3C[C@@H](CCl)c4c3ccc3ccccc43)[nH]c2c(OC)c1OC [Compound 9] | ≥ 10,000 fold
2 | COc1cc2cc(C(=O)N3C[C@@H](CCl)c4c3cc(OC)c3ccccc43)[nH]c2c(OC)c1OC [Compound 10] | ≥ 10,000 fold
